Reference: paper PMC11183318
These are yes or no findings as the source states them, for the method shown. In cells and extracts the contact can be indirect. Some entries that bind do so weakly or less than the wild type.

By UniProt entry, the sequences of proteins in these tests, tags left out.
UniProt Q9BR11: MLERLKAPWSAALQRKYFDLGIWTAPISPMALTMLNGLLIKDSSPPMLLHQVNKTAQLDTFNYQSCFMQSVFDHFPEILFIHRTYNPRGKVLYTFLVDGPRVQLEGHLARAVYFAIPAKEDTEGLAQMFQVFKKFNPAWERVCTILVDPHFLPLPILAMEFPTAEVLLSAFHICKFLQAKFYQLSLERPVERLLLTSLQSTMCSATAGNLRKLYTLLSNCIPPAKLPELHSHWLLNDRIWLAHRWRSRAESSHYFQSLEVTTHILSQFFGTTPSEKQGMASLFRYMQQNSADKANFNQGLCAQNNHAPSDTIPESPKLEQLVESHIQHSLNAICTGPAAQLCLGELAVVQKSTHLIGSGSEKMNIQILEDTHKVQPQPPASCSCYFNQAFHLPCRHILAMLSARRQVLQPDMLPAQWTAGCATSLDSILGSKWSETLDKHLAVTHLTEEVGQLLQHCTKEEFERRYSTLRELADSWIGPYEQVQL
UniProt P19474: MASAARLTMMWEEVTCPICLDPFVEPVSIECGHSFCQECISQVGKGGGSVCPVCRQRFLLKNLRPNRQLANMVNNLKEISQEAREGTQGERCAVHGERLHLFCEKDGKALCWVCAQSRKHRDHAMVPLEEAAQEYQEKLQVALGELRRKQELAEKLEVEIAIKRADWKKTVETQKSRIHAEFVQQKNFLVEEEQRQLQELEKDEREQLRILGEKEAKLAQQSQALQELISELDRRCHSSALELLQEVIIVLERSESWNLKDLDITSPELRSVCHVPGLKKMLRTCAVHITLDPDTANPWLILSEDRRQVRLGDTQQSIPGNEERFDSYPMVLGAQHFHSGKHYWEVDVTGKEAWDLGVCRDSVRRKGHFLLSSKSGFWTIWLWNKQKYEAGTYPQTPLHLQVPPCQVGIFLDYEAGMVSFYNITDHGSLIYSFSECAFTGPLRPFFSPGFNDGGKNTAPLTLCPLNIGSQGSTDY

Target: FLAG-ZSWIM1 (zinc finger SWIM-type containing 1) (human) (UniProt Q9BR11)
Test: co-IP; anti-FLAG antibody IP (IgG control) from EBC buffer lysate of H1299 cells stably overexpressing FLAG-ZSWIM1 and transiently transfected with HA-TRIM21; Protein A/G agarose, 4 °C overnight; detection by Western blot

binding: binds
Substance: HA-TRIM21 (tripartite motif protein 21) (from UniProt P19474 1-475)
